Assay results reported in patent US20120183524A1, “MOLECULAR TARGETS FOR TREATMENT OF INFLAMMATION” (University Of Rochester, priority 2007, published 2012).
Results are given in words; binding and its absence hold for the method and conditions named. Binding seen in cells or lysates may run through a third protein. Some binding calls cover weakened binding; strength is not graded here.

Legend:
[1] = target: T1, p52 (NF-kappaB p52; endogenous, mouse lung tissue) (mouse) (UniProt Q9WTK5); assay: co-immunoprecipitation from mouse lung (discussion of own results)
T1 sequence (looked up): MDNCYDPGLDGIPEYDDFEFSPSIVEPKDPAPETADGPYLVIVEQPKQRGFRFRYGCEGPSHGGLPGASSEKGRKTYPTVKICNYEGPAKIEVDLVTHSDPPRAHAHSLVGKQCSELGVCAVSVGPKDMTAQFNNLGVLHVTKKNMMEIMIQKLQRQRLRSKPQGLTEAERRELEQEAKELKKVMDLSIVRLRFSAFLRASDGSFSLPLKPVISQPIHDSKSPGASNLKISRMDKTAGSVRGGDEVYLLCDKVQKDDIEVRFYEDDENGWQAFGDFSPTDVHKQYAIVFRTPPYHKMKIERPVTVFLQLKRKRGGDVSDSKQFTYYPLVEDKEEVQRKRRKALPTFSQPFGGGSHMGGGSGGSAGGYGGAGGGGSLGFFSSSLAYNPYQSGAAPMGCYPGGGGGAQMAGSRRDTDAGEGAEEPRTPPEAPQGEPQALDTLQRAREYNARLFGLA

[2] = target: T1, p52 (NF-kappaB p52; endogenous, mouse lung tissue) (mouse); assay: co-immunoprecipitation from mouse whole lung tissue homogenate, Western blot
[3] = target: T1, p52 (NF-kappaB p52; endogenous, mouse lung tissue) (mouse); assay: co-immunoprecipitation from mouse lung, densitometry of blots (FIG. 2B)

binding [1]: binds
binding [2]: binds
binding [3]: binds
B1: RelB (endogenous, mouse lung tissue) (protein, UniProt Q04863 1-558, looked up)
chain: MPSRRAARESAPELGALGSSDLSSLSLTVSRTTDELEIIDEYIKENGFGLDGTQLSEMPRLVPRGPASLSSVTLGPAAPPPPATPSWSCTLGRLVSPGPCPRPYLVITEQPKQRGMRFRYECEGRSAGSILGESSTEASKTLPAIELRDCGGLREVEVTACLVWKDWPHRVHPHSLVGKDCTDGVCRVRLRPHVSPRHSFNNLGIQCVRKKEIEAAIERKIQLGIDPYNAGSLKNHQEVDMNVVRICFQASYRDQQGHLHRMDPILSEPVYDKKSTNTSELRICRINKESGPCTGGEELYLLCDKVQKEDISVVFSTASWEGRADFSQADVHRQIAIVFKTPPYEDLEISEPVTVNVFLQRLTDGVCSEPLPFTYLPRDHDSYGVDKKRKRGLPDVLGELSSSDPHGIESKRRKKKPVFLDHFLPGHSSGLFLPPSALQPADSDFFPASISLPGLEPPGGPDLLDDGFAYDPSAPTLFTMLDLLPPAPPLASAVVGSGGAGATVVESSGPEPLSLDSFAAPGPGDVGTASLVGSNMFPNQYREAAFGGGLLSPGPEAT
